According to article PMC4412921:
These are yes or no findings as the source states them, for the method shown.

Biological target: T1, recombinant human granulocyte colony-stimulating factor (human), P09919
T1 chain: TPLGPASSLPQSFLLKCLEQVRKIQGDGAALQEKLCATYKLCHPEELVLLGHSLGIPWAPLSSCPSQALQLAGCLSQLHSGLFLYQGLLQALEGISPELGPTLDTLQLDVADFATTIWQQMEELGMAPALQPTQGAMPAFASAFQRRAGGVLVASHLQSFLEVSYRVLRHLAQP
Test: SEC; TSK-GEL G3000SWXL (300 mm x 7.8 mm) column, mobile phase 1 mM K2HPO4-Na2HPO4 in water pH 6.2, flow 0.6 ml/min, detection at 280 nm; analysis of monomer and aggregates; both purified
Conditions: remark: other sources report otherwise

B1: recombinant human granulocyte colony-stimulating factor, P09919-2 31-204 (ligand)
chain: T1 chain
binding: no binding
